Results deposited as PubChem BioAssay AID1259326 (Drosophila RNAi Screening Center, 2017)

Assay: 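RNAi screen for genes modifying zinc chloride toxicity in fly cells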
Cells: Drosophila S2R+ cells
Knock-down reagent: long dsRNA against Drosophila genes
Time to read-out: about 5 days (4 days of RNAi, then 1 day of zinc)
Conditions: zinc chloride added to 15 mM final for one day
Measurement: 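Cellular ATP measured by luciferase light as a viable-cell proxy, after 4 days of RNAi and 1 day in 15 mM zinc chloride; replicate z-scores averaged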
Scale: averaged z-score: higher = more ATP than other wells, i.e. more surviving cells, after zinc; ATP luminescence: higher = more ATP, i.e. more surviving cells
Active means: 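Active if the averaged z-score exceeds 1.5 or falls under -1.5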
This is an unselected part of 573 reagents tested. Of all reagents, 39 (6.8%) were called active. 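All actives have raised ATP, meaning more surviving cells; in these data active calls sit at averaged z-scores near 1.5 or above.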 Raw values vary from plate to plate and are shown uncorrected. The numbers tell different reagents against one gene apart. Reagent sequences are not shown. Not stated in the record: the amount of reagent.

Target gene	dsRNA no.	averaged z-score	ATP luminescence, replicate 1	ATP luminescence, replicate 2	activity call
Rab2 (GeneID 35577)	1	-0.0397	96532	71162	inactive
Rab2 (GeneID 35577)	2	0.189	74506	74455	inactive
Rab2 (GeneID 35577)	3	-0.139	74792	72242	inactive
ACC (GeneID 35761)	1	0.39	1.02e5	82911	inactive
ACC (GeneID 35761)	2	0.0214	68692	79360	inactive
ACC (GeneID 35761)	3	0.216	88074	79764	inactive
Glys (GeneID 41823)	1	-0.537	75415	96364	inactive
Glys (GeneID 41823)	2	-0.115	64936	72843	inactive
car (GeneID 32947)	1	0.0556	96206	80698	inactive
car (GeneID 32947)	2	-0.504	70824	67852	inactive

The list goes on (2 carried over from the part before).
Target gene	dsRNA no.	averaged z-score	ATP luminescence, replicate 1	ATP luminescence, replicate 2	activity call
car (GeneID 32947)	1	0.0556	96206	80698	inactive
car (GeneID 32947)	2	-0.504	70824	67852	inactive
ThrRS (GeneID 45784)	1	0.342	91165	1.05e5	inactive
ThrRS (GeneID 45784)	2	0.0397	72020	78177	inactive
Gp93 (GeneID 43354)	1	0.717	1.11e5	89653	inactive
Gp93 (GeneID 43354)	2	-0.313	73100	73220	inactive
Gp93 (GeneID 43354)	3	-0.239	60512	80818	inactive
Vps15 (GeneID 41096)	1	-0.209	91694	73632	inactive
Vps15 (GeneID 41096)	2	-0.32	63976	62124	inactive
Vps15 (GeneID 41096)	3	-0.266	72297	70047	inactive
Cdc37 (GeneID 38232)	1	0.117	68949	67303	inactive
Cdc37 (GeneID 38232)	2	-0.0775	95272	76856	inactive
Cdc37 (GeneID 38232)	3	-0.155	81539	78177	inactive
CG8858 (GeneID 36319)	1	-0.29	67252	88947	inactive
CG8858 (GeneID 36319)	2	-0.144	72328	68782	inactive
Ciao1 (GeneID 36655)	1	0.136	1.04e5	75621	inactive
Ciao1 (GeneID 36655)	2	-0.455	80853	62509	inactive
Ciao1 (GeneID 36655)	3	-0.431	63599	70219	inactive
14-3-3epsilon (GeneID 42186)	1	-0.375	75793	81522	inactive
14-3-3epsilon (GeneID 42186)	2	-0.0884	66926	71934	inactive
14-3-3epsilon (GeneID 42186)	3	-0.303	77199	70150	inactive
